PubChem BioAssay AID1508588, Peter MacCallum Cancer Centre, 2020

Screen: 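Which gene losses make BRAF-mutant melanoma cells more responsive to vemurafenib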 (primary screen)
Cell system: human WM266.4 melanoma cells (BRAF V600 mutant)
Reagents: siRNA pool against human genes, 40 nM
Timing: 96 h from transfection to read-out
Treatment: vemurafenib 300 nM (about IC25), added 48 h after transfection, for 48 h; comparison arm got DMSO vehicle only
Measured: 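Cell gain (DAPI nuclei at end minus before drug, mean of two replicates) and medium lactate by absorbance per cell, both as ratio to non-targeting siRNA, also grouped into fold-change classes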
Reading the numbers: cell gain with vemurafenib: higher = more cell gain than with non-targeting siRNA; lactate per cell with vemurafenib: higher = more lactate made per cell
Active means: 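Enhancement is called by pairing each knock-down's vehicle-arm and drug-arm fold-change classes for viability or glycolysis; which class combinations qualify is not given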
Calls: active = enhances vemurafenib effect; inactive = no enhancement seen
Shown is one part, drawn at random, of about 18,000 reagents tested. Of all reagents, 790 (4.4%) are marked active. 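Calls rest on a combination of fold-change classes in drug and vehicle arms, not all shown here.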 Some reagents were tested in more than one well and are listed for each.

C19orf53 (chromosome 19 open reading frame 53) → cell gain with vemurafenib: 0.89; lactate per cell with vemurafenib: 0.9; Call: inactive
OR13F1 (olfactory receptor family 13 subfamily F member 1) → cell gain with vemurafenib: 0.83; lactate per cell with vemurafenib: 2.14; Call: inactive
PBLD (phenazine biosynthesis like protein domain containing) → cell gain with vemurafenib: 1.2; lactate per cell with vemurafenib: 1.04; Call: inactive
VIM (vimentin) → cell gain with vemurafenib: 0.57; lactate per cell with vemurafenib: 0.75; Call: inactive
SCAP (SREBF chaperone) → cell gain with vemurafenib: 1.31; lactate per cell with vemurafenib: 0.8; Call: inactive
MISP (mitotic spindle positioning) → cell gain with vemurafenib: 0.83; lactate per cell with vemurafenib: 0.94; Call: inactive
ZFP91 (ZFP91 zinc finger protein, atypical E3 ubiquitin ligase) → cell gain with vemurafenib: 0.53; lactate per cell with vemurafenib: 1.66; Call: inactive
PIN4 (peptidylprolyl cis/trans isomerase, NIMA-interacting 4) → cell gain with vemurafenib: 0.48; lactate per cell with vemurafenib: 1.27; Call: inactive
PTGFRN (prostaglandin F2 receptor inhibitor) → cell gain with vemurafenib: 0.34; lactate per cell with vemurafenib: 0.99; Call: inactive
PCDHA3 (protocadherin alpha 3) → cell gain with vemurafenib: 0.7; lactate per cell with vemurafenib: 1.05; Call: inactive
RBBP6 (RB binding protein 6, ubiquitin ligase) → cell gain with vemurafenib: 0.74; lactate per cell with vemurafenib: 1.06; Call: inactive
MAX (MYC associated transcriptional regulator X) → cell gain with vemurafenib: 0.8; lactate per cell with vemurafenib: 0.67; Call: inactive
RFXANK (regulatory factor X associated ankyrin containing protein) → cell gain with vemurafenib: -0.04; lactate per cell with vemurafenib: 1.46; Call: inactive
CSTF3 (cleavage stimulation factor subunit 3) → cell gain with vemurafenib: 0.46; lactate per cell with vemurafenib: 0.27; Call: inactive
ORAI1 (ORAI calcium release-activated calcium modulator 1) → cell gain with vemurafenib: 0.32; lactate per cell with vemurafenib: 1.11; Call: inactive
ORAI1 (ORAI calcium release-activated calcium modulator 1) → cell gain with vemurafenib: 0.47; lactate per cell with vemurafenib: 1.54; Call: inactive
RUNX3 (RUNX family transcription factor 3) → cell gain with vemurafenib: 0.27; lactate per cell with vemurafenib: 0.76; Call: inactive
CLCA1 (chloride channel accessory 1) → cell gain with vemurafenib: 0.22; lactate per cell with vemurafenib: 0.78; Call: inactive
PRDM1 (PR/SET domain 1) → cell gain with vemurafenib: 0.44; lactate per cell with vemurafenib: 0.82; Call: inactive
SIRT3 (sirtuin 3) → cell gain with vemurafenib: 0.76; lactate per cell with vemurafenib: 0.57; Call: inactive
NR1H3 (nuclear receptor subfamily 1 group H member 3) → cell gain with vemurafenib: 0.31; lactate per cell with vemurafenib: 0.94; Call: inactive
RUVBL2 (RuvB like AAA ATPase 2) → cell gain with vemurafenib: 0.14; lactate per cell with vemurafenib: 1.72; Call: inactive
P2RX4 (purinergic receptor P2X 4) → cell gain with vemurafenib: 0.67; lactate per cell with vemurafenib: 0.57; Call: inactive
PPP1R13L (protein phosphatase 1 regulatory subunit 13 like) → cell gain with vemurafenib: 0.53; lactate per cell with vemurafenib: 1.16; Call: inactive
KCNK7 (potassium two pore domain channel subfamily K member 7) → cell gain with vemurafenib: 0.88; lactate per cell with vemurafenib: 1.15; Call: inactive
NOA1 (nitric oxide associated 1) → cell gain with vemurafenib: 0.25; lactate per cell with vemurafenib: 2.04; Call: inactive
INAVA (innate immunity activator) → cell gain with vemurafenib: 0.52; lactate per cell with vemurafenib: 0.98; Call: inactive
TRIM48 (tripartite motif containing 48) → cell gain with vemurafenib: 0.72; lactate per cell with vemurafenib: 1.27; Call: inactive
UAP1L1 (UDP-N-acetylglucosamine pyrophosphorylase 1 like 1) → cell gain with vemurafenib: 0.64; lactate per cell with vemurafenib: 0.74; Call: inactive
MEF2D (myocyte enhancer factor 2D) → cell gain with vemurafenib: 0.92; lactate per cell with vemurafenib: 0.42; Call: inactive
LRP6 (LDL receptor related protein 6) → cell gain with vemurafenib: 0.7; lactate per cell with vemurafenib: 0.88; Call: inactive
PRICKLE4 (prickle planar cell polarity protein 4) → cell gain with vemurafenib: 1.12; lactate per cell with vemurafenib: 0.68; Call: inactive
ZFP64 (ZFP64 zinc finger protein) → cell gain with vemurafenib: 0.16; lactate per cell with vemurafenib: 1.42; Call: inactive
KANSL2 (KAT8 regulatory NSL complex subunit 2) → cell gain with vemurafenib: 0.49; lactate per cell with vemurafenib: 1.5; Call: inactive
EID2B (EP300 interacting inhibitor of differentiation 2B) → cell gain with vemurafenib: -0.02; lactate per cell with vemurafenib: 2.8; Call: inactive
STK39 (serine/threonine kinase 39) → cell gain with vemurafenib: 0.19; lactate per cell with vemurafenib: 1.49; Call: inactive
IMPG2 (interphotoreceptor matrix proteoglycan 2) → cell gain with vemurafenib: 0.54; lactate per cell with vemurafenib: 0.84; Call: inactive
PCDH20 (protocadherin 20) → cell gain with vemurafenib: 0.86; lactate per cell with vemurafenib: 0.59; Call: inactive
DGKH (diacylglycerol kinase eta) → cell gain with vemurafenib: 0.66; lactate per cell with vemurafenib: 0.4; Call: inactive
LUC7L3 (LUC7 like 3 pre-mRNA splicing factor) → cell gain with vemurafenib: 0.28; lactate per cell with vemurafenib: 1.1; Call: inactive
